# Values from PubChem BioAssay AID686937 (Drosophila RNAi Screening Center, 2013).
# Purpose: 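Knock-downs that reduce output of a secreted reporter enzyme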 (primary screen)
# Cell system: Drosophila S2 cells expressing secreted horseradish peroxidase
# Knock-down reagent: long dsRNA against Drosophila genes
# Duration: about 5.5 days (5 days dsRNA, then 12 h reporter induction)
# Treatment: reporter expression induced after 5 days of dsRNA, read 12 h later; inducer not stated
# Measured: 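After 5 days of dsRNA and 12 h of reporter induction, medium peroxidase read by chemiluminescence and scored as per-plate z-score; higher values mean more reporter released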
# Scale: z-score: higher = more reporter secreted into medium
# In all, the deposit lists about 23,000 reagents; this is a random part of those with a known target gene and a result. 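Reduced-secretion tags in replicate 1 do not always agree with the z-scores; no criterion for assigning the tags was given.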 A plus sign joins genes that one reagent is predicted to hit. Not given: the amount of reagent.
gene knocked down,DRSC id,"z-score, replicate 1","z-score, replicate 2","z-score, replicate 3","z-score, replicate 4","phenotype, replicate 1"
CycC,DRSC16619,0.3,0.49,,,
hbt,DRSC01310,0.01,0.07,,,
hbt,DRSC02549,0.27,0.32,,,
CG14435,DRSC17928,-0.02,0.03,,,
CG44325,DRSC18039,-0.46,-0.22,,,
CG44325,DRSC18423,0.03,-0.81,,,
Grl58a,DRSC04145,0.02,0.17,,,
CG14683,DRSC17035,0.55,0.66,,,
Aldh-III,DRSC06047,-0.13,-0.19,,,
CG15482,DRSC02492,0.37,0.41,,,
CG8468,DRSC07190,0.31,0.16,,,
inaF-B + inaF-D + inaF-C + 1 more,DRSC20342,0.08,0.02,,,
Pgi,DRSC07507,0.19,0.28,,,
Cog2,DRSC16987,-1.65,-1.68,,,reduced secretion
CG14260,DRSC14755,0.19,0.05,,,
CG8483,DRSC16430,0.21,0.27,,,
CG43188,DRSC05260,0.42,0.41,,,
Utx,DRSC02872,-0.23,0.2,,,
Fer3HCH,DRSC19892,0.24,0.24,,,
CG40948 (retired record),DRSC20944,0.25,0.7,,,
GABA-B-R2,DRSC14134,0.29,0.16,-0.03,-1.18,
Trhn,DRSC08621,0.39,0.11,,,
Amph,DRSC07578,0.07,0.25,,,
alpha-Est6,DRSC12618,0.32,0.34,,,
Ir94b,DRSC21439,0.7,1.64,,,
ScsbetaG,DRSC11294,0.29,0.13,,,
Fife,DRSC08262,0.02,0.09,,,
Fife,DRSC08409,0.1,0.26,,,
Fife,DRSC08499,0.34,0.39,,,
CG8172,DRSC07089,0.23,0.35,,,
CG8172,DRSC22113,0.39,1.1,,,
Lerp,DRSC14750,0.42,0.45,,,
Lerp,DRSC14751,0.34,0.69,,,
Lerp,DRSC16030,0.26,-0.02,,,
Lerp,DRSC16031,0.37,0.46,,,
CG2871,DRSC18230,0.43,0.3,0.35,0.47,
CG2871,DRSC21719,0.05,0.26,,,
CG8997,DRSC01900,0.03,0.21,,,
CG40006,DRSC03787,0.06,0.34,,,
CG40006,DRSC03809,0.87,0.18,,,
CG40006,DRSC03814,-0.12,0,,,
CG40006,DRSC03817,0.25,-0.05,,,
Ance-5,DRSC04055,0.22,0.23,,,
GNBP3,DRSC11170,0.37,0.44,,,
Prim1,DRSC11137,0.1,0.18,,,
CG43980,DRSC11500,-1.01,0.11,,,
CG43980,DRSC11646,0.24,0.37,,,
CG43980,DRSC22923,0.12,-0.39,,,
CG14803,DRSC18556,0.26,0.02,,,
Pp2A-29B,DRSC03400,0.46,-0.07,,,
Vps36,DRSC09785,-1.38,-0.79,,,
lectin-29Ca,DRSC02635,0.21,-0.01,,,
SelR,DRSC16071,-0.06,-0.65,,,
CG2993,DRSC14284,0.14,-0.11,,,
CG2993,DRSC15457,0.59,0.68,,,
CG33673,DRSC00084,0.44,0.4,,,

Part of the list above, showing only “z-score, replicate 1”.
Lerp [DRSC16031]	0.37
CG2871 [DRSC18230]	0.43
CG2871 [DRSC21719]	0.05
CG8997 [DRSC01900]	0.03
CG40006 [DRSC03787]	0.06
CG40006 [DRSC03809]	0.87
